Results reported in article PMC4517651.
These are yes or no findings as the source states them, for the method shown. In cells and extracts the contact can be indirect. Some binding calls cover weakened binding; strength is not graded here. Where a sequence is shown, tags or fusion partners need not be part of it.

By UniProt entry, the sequences of proteins in these tests, tags left out.
UniProt P40763: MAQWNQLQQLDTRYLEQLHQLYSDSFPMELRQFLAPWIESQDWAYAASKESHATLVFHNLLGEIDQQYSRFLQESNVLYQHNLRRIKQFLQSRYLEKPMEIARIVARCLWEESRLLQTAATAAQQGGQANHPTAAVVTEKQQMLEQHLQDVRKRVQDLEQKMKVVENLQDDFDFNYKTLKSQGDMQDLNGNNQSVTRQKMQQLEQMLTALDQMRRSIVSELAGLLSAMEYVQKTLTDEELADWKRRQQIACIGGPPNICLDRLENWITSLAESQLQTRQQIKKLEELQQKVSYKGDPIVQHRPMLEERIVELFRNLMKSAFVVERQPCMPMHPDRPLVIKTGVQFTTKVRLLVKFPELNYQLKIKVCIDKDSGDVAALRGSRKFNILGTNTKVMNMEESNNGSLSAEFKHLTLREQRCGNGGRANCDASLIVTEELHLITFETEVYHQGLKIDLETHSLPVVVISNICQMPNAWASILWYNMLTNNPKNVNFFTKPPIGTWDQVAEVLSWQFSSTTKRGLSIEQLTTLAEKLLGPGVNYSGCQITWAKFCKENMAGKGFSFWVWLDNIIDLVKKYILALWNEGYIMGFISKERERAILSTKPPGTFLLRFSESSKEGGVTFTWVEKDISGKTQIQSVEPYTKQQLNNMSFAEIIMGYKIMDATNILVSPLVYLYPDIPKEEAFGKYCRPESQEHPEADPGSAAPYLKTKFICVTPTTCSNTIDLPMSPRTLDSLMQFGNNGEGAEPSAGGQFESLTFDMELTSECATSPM

Biological target: Stat3 (human (endogenous in HPDE)) (UniProt P40763)
Assay: co-IP; control or SgK223-overexpressing HPDE cells lysed in normal lysis buffer; IP with Stat3 antibodies or mouse IgG (negative control); Western blot

binding: binds
B1: SgK223 (rat), expressed from pBabe-puro/myc-Pragmin (protein, UniProt D3ZMK9 1-1368)
chain: MSACSDFVEHIWKPGSCKNCFCLRSDHQLTAGHPKARASSLPAGARLPARPEICRLEDEGVNGLAYSKPTIAVKPTMMTSETADLWTEASLSAEVPKVNWRRTPGKLLLQKQEDGPIVYLGSFRGMQKAAGPLACTDSNSRCPPAYTMVGLHNLEARVDRNTALQPVNFQEEKAGREELPSAQESFRQKLAAFTGMTSSCLKGPRPCTSPQPLRESLPSEDDSDQRCSPSGDSEGGEYCSILDCRPESRDAVHNTEGSGRRRGDCSPICWEQGTCTRPTEEEKQALNFPRECCGQGSTANPPHLGPKKPSLNSEAASSSDGLSCGSSRSGANSPFAPHLENDYCSLVKEPTSVKQQDSGCHLVNSGKYVGQAVDLQPPALPREAVQPEPIYAESAKRKKAAPVPQRPEPKKEQVSSGQVWTGDTWSQKTPSGWSQEREGPNAAPQVATTITVIAAHPEEDHRTIYLSSPDSAVGVQWPRGSLNQDLHGSGEEPLVVQGLSSRESHPHNMTENSSKEKPAIPPKLSKSSPGGSPVSPAAPPLTDHSDGNTSGSSVGSQPSSRVPTNLTSSCQTNGVAAGDPAKCPPQANSSVLDQRRPRYQTGAWSRQCRIEEEEEVGQELLSQSWGRELENGIADHSNSSTWHRLHPIDGASGQNGKTNSGMSKSASFAFEFPKDRGRLESFSPPPPPPKSRHLLKMNKSSSDLEKVSQSSAESLSPSFRGAHVSFTTGSTDSLASDSRTCSDGGPSCEATHSPTISGKKLFAPVPFPSGSTEDVSPSGPAQPPPLPQKKIVSRAASSPDGFFWTQGSPKPRTASPKLNLSHSETNVCAHDEPPLSYSLNSGNHPHHVFSSSEPLEKAFKGSVPWAPALGPANSKGGCGSPNLQGRAATSTSSSQLSVSSQASTGSSQLQLHSLLSSISSKEGTYAKLGGLYTQSLARLVTKCEDLFMGGLKTELRFDENSWSLFKLICNKPCCDSGDAIYYGATCSKDPDSIYAVKICKTPEPKSASYCSPSVPVHFNIQQDCGHFVASVPSSMLAFPDTSSKDPAPAAPSHTPAQEQDCVVVITREVPHQTASDFVRDSVASHRAEPEVYERRVCFLLLQLCNGLEHLKEHGIIHRDLCLENLLLVHCNPQSSPGPSANPSVPTTTSRCPSAAPAATTACQGGPGEKHLPRLIISNFLKAKQKPGGTTNLQQKKSQARLAPEIVSASQYRKFDEFQTGILIYELLHQPNPFEVRAQLRERDYRREDLPPLPTLSLYSPGLQQLAHLLLEADPIKRIRIGEAKRVLQCLLWGPRRELVEQPCPSEEVLCNTLHNWIDMKRALMMMKFAEKAVERRRGVELEDWLCCQYLASAEPGALLQSLKLLQLL
